In patent US20230035235A1:
These are yes or no findings as the source states them, for the method shown. For some of these results: Binding seen in cells or lysates may run through a third protein. Some entries that bind do so weakly or less than the wild type. For some of these results: Where a sequence is shown, tags or fusion partners need not be part of it. Blank lines part the entries; values can stand above or below the substance they belong to.

Amino acid sequences for entries named in this document (tags omitted). Residues count along the entry.
UniProt Q6STE5, residues 2-483: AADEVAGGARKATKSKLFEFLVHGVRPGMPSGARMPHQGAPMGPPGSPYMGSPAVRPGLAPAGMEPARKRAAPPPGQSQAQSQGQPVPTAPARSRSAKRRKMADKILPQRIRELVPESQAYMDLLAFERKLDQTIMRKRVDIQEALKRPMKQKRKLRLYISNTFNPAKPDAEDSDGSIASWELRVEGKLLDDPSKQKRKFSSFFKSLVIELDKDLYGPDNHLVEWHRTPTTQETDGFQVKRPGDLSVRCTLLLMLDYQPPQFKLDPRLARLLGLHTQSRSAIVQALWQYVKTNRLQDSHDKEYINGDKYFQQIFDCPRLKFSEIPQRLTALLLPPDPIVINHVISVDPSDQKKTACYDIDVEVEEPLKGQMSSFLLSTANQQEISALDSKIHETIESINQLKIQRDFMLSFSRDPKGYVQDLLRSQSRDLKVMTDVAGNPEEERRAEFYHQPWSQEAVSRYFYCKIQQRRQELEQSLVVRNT
UniProt Q86U86: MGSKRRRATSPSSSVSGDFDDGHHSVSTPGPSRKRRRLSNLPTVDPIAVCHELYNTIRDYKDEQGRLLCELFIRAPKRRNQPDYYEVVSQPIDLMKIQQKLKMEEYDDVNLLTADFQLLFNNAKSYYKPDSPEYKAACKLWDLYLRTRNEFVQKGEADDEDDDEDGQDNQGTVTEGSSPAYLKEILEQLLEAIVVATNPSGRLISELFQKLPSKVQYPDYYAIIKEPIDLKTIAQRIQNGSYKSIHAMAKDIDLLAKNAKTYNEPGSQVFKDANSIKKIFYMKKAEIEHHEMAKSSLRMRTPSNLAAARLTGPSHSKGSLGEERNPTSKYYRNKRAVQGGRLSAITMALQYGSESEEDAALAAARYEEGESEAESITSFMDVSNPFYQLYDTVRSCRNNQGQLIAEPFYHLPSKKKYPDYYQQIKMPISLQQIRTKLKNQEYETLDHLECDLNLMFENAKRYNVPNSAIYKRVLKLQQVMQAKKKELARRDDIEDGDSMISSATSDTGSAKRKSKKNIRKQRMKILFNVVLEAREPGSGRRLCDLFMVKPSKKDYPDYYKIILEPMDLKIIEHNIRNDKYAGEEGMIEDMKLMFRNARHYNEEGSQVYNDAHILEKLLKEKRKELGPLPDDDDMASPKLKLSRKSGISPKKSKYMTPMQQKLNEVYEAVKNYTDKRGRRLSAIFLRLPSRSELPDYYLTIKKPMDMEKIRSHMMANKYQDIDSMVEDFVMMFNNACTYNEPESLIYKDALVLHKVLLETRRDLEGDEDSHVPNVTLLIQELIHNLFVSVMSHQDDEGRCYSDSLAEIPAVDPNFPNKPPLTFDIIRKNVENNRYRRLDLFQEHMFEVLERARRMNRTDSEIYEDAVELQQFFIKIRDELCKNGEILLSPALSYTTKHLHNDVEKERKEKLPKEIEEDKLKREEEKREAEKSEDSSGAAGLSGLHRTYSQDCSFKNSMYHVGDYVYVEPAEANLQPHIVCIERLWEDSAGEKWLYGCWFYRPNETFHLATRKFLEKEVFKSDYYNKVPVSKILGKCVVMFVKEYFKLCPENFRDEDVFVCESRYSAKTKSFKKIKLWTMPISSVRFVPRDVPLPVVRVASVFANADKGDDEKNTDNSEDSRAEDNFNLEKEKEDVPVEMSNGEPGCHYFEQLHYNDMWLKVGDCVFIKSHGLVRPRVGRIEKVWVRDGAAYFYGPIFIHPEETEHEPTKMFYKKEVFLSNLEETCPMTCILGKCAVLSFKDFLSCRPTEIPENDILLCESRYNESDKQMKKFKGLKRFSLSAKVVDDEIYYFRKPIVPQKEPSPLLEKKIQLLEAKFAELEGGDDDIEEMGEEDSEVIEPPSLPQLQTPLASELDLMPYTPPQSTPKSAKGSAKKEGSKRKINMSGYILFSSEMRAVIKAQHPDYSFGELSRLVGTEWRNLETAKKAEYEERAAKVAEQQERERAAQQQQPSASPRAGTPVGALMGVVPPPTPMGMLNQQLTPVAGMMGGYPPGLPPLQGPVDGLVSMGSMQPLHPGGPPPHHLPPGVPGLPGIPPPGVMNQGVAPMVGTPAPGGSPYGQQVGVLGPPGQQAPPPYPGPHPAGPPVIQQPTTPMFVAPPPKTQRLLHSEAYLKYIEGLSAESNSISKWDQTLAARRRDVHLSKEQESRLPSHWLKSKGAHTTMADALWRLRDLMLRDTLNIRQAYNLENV
UniProt Q92922, residues 2-1105: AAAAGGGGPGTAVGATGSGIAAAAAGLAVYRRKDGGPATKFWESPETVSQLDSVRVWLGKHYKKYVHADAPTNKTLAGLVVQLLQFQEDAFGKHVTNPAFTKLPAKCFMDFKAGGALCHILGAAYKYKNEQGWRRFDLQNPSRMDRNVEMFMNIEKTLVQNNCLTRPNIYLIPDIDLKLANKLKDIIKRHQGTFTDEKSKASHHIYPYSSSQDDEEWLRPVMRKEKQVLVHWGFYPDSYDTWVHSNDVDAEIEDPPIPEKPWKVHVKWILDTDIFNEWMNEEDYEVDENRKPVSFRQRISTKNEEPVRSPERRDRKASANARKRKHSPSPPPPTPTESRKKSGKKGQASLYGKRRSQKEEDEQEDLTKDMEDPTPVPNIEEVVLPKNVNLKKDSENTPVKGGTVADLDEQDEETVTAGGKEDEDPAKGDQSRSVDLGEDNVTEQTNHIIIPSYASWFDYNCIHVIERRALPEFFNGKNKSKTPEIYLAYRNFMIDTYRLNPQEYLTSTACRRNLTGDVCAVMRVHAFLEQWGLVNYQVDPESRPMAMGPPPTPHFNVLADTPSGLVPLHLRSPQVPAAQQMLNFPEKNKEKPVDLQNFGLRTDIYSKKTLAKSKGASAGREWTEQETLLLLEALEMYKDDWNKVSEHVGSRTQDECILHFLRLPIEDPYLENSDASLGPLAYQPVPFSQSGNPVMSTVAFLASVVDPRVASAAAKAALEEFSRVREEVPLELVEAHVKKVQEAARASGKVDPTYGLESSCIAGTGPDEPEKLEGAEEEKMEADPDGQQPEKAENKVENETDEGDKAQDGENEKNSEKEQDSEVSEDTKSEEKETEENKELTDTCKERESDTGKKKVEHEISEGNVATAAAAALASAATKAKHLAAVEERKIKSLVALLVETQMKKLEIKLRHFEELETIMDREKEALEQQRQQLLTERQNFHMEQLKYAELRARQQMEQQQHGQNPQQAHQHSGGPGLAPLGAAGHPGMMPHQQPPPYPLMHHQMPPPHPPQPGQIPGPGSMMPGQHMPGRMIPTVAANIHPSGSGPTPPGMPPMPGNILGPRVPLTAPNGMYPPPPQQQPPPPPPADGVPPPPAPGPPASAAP
UniProt Q8TAQ2: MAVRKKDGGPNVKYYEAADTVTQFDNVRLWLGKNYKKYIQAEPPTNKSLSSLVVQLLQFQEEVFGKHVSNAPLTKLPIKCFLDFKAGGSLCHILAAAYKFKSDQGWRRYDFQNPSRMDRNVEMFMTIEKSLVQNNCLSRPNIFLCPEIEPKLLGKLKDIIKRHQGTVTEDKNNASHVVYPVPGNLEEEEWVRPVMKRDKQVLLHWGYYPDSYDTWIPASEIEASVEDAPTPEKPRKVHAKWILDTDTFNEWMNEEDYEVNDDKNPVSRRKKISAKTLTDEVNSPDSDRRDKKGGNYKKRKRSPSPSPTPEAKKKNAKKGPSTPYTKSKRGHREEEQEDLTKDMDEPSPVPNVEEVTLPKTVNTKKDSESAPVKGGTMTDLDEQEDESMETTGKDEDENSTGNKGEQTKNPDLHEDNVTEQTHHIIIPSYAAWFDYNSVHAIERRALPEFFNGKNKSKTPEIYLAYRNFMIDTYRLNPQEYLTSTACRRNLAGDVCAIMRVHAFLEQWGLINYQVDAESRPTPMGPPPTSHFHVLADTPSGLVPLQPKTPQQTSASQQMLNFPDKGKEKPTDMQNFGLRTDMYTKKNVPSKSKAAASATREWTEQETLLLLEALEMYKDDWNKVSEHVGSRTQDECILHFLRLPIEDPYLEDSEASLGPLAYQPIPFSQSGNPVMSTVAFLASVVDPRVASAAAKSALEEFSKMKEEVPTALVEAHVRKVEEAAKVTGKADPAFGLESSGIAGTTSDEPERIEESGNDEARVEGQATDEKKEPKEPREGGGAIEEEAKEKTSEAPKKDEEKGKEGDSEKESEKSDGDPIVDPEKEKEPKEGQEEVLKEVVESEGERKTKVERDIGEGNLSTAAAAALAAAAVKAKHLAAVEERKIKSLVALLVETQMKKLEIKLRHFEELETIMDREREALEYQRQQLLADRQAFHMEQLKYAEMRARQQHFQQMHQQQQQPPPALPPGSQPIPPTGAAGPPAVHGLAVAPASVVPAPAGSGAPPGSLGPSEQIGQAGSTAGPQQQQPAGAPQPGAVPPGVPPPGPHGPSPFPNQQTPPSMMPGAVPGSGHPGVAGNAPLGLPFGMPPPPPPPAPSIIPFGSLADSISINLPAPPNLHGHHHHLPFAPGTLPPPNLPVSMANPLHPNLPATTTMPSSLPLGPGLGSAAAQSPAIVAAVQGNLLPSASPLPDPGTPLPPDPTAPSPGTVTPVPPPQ
UniProt Q92925: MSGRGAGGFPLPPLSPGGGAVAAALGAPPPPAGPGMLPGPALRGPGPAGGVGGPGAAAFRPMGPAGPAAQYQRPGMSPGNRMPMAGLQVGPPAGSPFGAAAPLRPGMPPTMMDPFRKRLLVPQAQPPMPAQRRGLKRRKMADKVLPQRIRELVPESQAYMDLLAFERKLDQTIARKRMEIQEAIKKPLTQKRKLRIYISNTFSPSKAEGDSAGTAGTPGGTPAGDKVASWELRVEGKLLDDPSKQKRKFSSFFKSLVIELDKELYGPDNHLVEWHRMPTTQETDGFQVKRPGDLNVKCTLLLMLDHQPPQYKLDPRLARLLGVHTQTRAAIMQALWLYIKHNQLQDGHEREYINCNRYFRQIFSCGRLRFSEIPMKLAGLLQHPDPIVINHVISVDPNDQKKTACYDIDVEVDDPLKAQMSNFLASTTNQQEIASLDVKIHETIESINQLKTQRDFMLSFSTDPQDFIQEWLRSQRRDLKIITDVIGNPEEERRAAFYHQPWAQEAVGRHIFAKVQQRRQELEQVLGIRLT
UniProt O96019, residues 2-429: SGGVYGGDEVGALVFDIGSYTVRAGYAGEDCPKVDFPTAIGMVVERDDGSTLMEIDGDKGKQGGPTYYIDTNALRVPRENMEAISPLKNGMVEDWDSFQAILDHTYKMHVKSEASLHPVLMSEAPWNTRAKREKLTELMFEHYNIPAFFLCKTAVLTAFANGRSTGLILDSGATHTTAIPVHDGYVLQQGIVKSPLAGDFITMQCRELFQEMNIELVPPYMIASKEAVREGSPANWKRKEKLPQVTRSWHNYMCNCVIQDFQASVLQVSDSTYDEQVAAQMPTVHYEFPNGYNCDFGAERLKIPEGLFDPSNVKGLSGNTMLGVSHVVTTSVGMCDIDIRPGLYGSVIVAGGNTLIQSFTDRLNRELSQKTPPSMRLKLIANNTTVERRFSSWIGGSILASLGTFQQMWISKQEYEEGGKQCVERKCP
UniProt Q969G3: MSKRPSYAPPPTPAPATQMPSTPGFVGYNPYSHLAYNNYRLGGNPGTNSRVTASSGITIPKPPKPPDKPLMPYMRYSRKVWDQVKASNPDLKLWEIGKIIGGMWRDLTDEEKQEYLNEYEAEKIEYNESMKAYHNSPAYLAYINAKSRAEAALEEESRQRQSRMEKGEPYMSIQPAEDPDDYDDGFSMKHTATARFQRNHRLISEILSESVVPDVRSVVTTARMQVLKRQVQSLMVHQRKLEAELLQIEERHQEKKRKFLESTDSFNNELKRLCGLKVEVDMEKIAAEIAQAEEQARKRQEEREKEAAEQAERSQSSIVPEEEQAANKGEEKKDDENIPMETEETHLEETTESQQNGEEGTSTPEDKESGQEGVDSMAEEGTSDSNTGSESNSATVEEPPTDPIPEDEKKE
UniProt Q9VYG2: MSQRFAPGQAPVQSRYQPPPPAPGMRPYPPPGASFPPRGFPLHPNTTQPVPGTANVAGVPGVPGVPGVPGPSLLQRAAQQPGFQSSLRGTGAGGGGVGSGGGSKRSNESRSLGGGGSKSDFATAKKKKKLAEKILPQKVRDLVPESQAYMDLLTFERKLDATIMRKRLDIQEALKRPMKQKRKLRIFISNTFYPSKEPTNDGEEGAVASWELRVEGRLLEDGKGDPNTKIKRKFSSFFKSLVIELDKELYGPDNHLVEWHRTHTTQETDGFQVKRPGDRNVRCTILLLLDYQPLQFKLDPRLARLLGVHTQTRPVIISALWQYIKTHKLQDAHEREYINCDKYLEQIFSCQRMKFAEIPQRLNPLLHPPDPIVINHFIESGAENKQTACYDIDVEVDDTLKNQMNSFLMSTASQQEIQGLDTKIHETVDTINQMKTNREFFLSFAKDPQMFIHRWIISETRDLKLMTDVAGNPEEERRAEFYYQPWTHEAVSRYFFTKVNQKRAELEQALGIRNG

Experiments:
SMARCD3 (human) [1] = molecular target: SMARCD3 (human) (UniProt Q6STE5); assay: inter-protein BS3 crosslinks found by CX-MS in HA-PHF10-purified PBAF complexes (HEK-293T)
[2] = molecular target: PBRM1 (protein Polybromo-1) (human) (UniProt Q86U86); assay: CX-MS self-crosslinks; co-IP/immunoblot with GFP- and V5-tagged PBRM1 variants
[3] = molecular target: SMARCC1 (SWI/SNF related, matrix associated, actin dependent regulator of chromatin subfamily c member 1) (human) (UniProt Q92922); assay: inter-protein BS3 cross-links found by CX-MS in HA-BRD7-purified PBAF complexes (HEK-293T)
[4] = molecular target: SMARCA2 (BRM/BAF190) (human) (UniProt P51531); assay: as above
[5] = molecular target: T1, PHF10 (PHD finger protein 10) (human) (UniProt Q8WUB8); assay: as above
T1 sequence (looked up): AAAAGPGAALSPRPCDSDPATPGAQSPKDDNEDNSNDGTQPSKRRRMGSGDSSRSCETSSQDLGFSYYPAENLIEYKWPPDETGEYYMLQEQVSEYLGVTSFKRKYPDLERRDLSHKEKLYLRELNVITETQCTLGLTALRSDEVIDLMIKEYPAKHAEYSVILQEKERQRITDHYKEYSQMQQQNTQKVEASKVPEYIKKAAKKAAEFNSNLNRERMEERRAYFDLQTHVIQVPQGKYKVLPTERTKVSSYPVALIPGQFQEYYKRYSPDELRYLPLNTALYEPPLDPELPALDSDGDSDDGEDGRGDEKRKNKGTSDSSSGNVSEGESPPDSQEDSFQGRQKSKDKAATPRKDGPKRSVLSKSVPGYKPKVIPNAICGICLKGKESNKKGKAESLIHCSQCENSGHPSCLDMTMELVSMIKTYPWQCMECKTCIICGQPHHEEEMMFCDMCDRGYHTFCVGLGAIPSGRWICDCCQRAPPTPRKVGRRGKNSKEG

[6] = molecular target: SMARCC2 (SWI/SNF related, matrix associated, actin dependent regulator of chromatin subfamily c member 2) (human) (UniProt Q8TAQ2); assay: as above
[7] = molecular target: SMARCD3 (SWI/SNF related, matrix associated, actin dependent regulator of chromatin subfamily D member 3) (human) (UniProt Q6STE5); assay: inter-protein BS3 crosslink found by CX-MS in HA-BRD7-purified PBAF complexes, HEK-293T
[8] = molecular target: SMARCC1 (human (HEK-293T cells)) (UniProt Q92922); assay: BS3 CX-MS inter-protein crosslink listed for the pair; HA-BRD7-purified PBAF complexes from HEK-293T
SMARCA2 (human) [9] = molecular target: SMARCA2 (human) (UniProt P51531); assay: inter-protein BS3 crosslink found by CX-MS in Flag-HA-SS18-purified complexes (HEK-293T)
[10] = molecular target: SMARCB1 (SWI/SNF related, matrix associated, actin dependent regulator of chromatin subfamily B member 1) (human) (UniProt Q12824); assay: as above
[11] = molecular target: SMARCA4 (SWI/SNF related, matrix associated, actin dependent regulator of chromatin, subfamily a, member 4) (human) (UniProt P51532); assay: inter-protein BS3 crosslinks found by CX-MS in Flag-HA-SS18-purified complexes (HEK-293T)
[12] = molecular target: SMARCD2 (SWI/SNF related, matrix associated, actin dependent regulator of chromatin subfamily D member 2) (human) (UniProt Q92925); assay: inter-protein BS3 crosslink found by CX-MS in HA-BRD7-purified PBAF complexes, HEK-293T
SMARCA2 (human) [13] = molecular target: SMARCA2 (human) (UniProt P51531); assay: inter-protein BS3 crosslinks (CX-MS), HA-BRD7-purified PBAF complexes from HEK-293T
PBRM1 (human) = PBRM1 (human) (UniProt Q86U86); assay: as above
[14] = molecular target: SMARCA2 (BRM/BAF190) (human) (UniProt P51531); assay: inter-protein BS3 crosslink, CX-MS of HA-PHF10-purified PBAF complexes from HEK-293T cells
SMARCC2 (human) [15] = molecular target: SMARCC2 (human) (UniProt Q8TAQ2); assay: inter-protein BS3 crosslinks found by CX-MS in HA-PHF10-purified PBAF complexes (HEK-293T)
HA-PHF10 (human) = molecular target: T2, HA-PHF10 (human) (UniProt Q8WUB8); assay: as above
T2 sequence (looked up): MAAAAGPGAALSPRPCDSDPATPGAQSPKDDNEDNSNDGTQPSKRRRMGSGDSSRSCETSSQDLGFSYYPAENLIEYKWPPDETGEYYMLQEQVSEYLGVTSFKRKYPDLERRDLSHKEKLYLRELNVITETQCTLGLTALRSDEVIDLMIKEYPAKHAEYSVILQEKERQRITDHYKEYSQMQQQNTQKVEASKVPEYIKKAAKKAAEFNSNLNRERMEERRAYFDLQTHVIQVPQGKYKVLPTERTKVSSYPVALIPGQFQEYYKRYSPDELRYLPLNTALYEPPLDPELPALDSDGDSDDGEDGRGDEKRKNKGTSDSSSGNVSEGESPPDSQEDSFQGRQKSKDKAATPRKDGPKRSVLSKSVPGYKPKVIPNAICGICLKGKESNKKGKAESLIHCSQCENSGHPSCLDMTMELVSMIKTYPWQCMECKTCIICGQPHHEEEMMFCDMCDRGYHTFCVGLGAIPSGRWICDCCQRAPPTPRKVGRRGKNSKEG

SMARCC1 (human) = SMARCC1 (human) (UniProt Q92922); assay: as above
SMARCD2 (human) = SMARCD2 (human) (UniProt Q92925); assay: as above
[16] = molecular target: ACTL6A (Actin Like 6A) (human) (UniProt O96019); assay: inter-protein BS3 cross-link found by CX-MS in HA-BRD7-purified PBAF complexes (HEK-293T)
SMARCC2 (human) [17] = molecular target: SMARCC2 (human) (UniProt Q8TAQ2); assay: inter-protein BS3 cross-links found by CX-MS in HA-PHF10-purified PBAF complexes from HEK-293T cells
SMARCD3 (human) [18] = molecular target: SMARCD3 (human) (UniProt Q6STE5); assay: as above
[19] = molecular target: SMARCE1 (SWI/SNF related, matrix associated, actin dependent regulator of chromatin subfamily E member 1) (human) (UniProt Q969G3); assay: inter-protein BS3 crosslinks found by CX-MS in HA-DPF2-purified BAF complexes (HEK-293T)
[20] = molecular target: Brm (D. melanogaster BAP/PBAP ATPase subunit, BRM_DROME) (D. melanogaster) (UniProt P25439); assay: inter-protein BS3 crosslinks found by CX-MS in BAP60-HA complexes from S2 cells
[21] = molecular target: Osa (D. melanogaster ARID1 ortholog) (D. melanogaster) (UniProt Q8IN94); assay: inter-protein BS3 crosslink found by CX-MS in BAP60-HA complexes from S2 cells

Substance: SMARCA2 (from UniProt P51531 1-1590) (enzyme)
binding [8]: binds

Substance: BCL7C (BCL Tumor Suppressor 7C) (from UniProt Q8WUZ0 1-217)
binding (SMARCA2 (human) [9]): binds
binding [10]: binds
binding [11]: binds

Substance: SMARCA4 (SWI/SNF related, matrix associated, actin dependent regulator of chromatin, subfamily a, member 4) (from UniProt P51532 1-1647) (enzyme)
binding [12]: binds

Substance: ACTL6A (from UniProt O96019 2-429)
binding (SMARCA2 (human) [13]): binds
binding (PBRM1 (human)): binds

Substance: SMARCD2 (SWI/SNF related, matrix associated, actin dependent regulator of chromatin subfamily D member 2) (from UniProt Q92925 1-531)
binding [19]: binds

Substance: BAP60-HA (D. melanogaster SMARCD1 ortholog with HA tag) (from UniProt Q9VYG2 1-515)
binding [20]: binds
binding [21]: binds

The remaining lines, values ahead:

binding (SMARCD3 (human) [1]): binds
Substance: SMARCC2 (from UniProt Q8TAQ2 1-1214)

binding [2]: binds
binding [3]: binds
binding [4]: binds
binding [5]: binds
binding [6]: binds
Substance: PBRM1 (protein Polybromo-1) (from UniProt Q86U86 1-1689)

binding [7]: binds
Substance: SMARCC1 (SWI/SNF related, matrix associated, actin dependent regulator of chromatin subfamily c member 1) (from UniProt Q92922 2-1105)

binding [14]: binds
Substance: ACTL6A (Actin Like 6A) (from UniProt O96019 2-429)

binding (SMARCC2 (human) [15]): binds
binding (HA-PHF10 (human)): binds
binding (SMARCC1 (human)): binds
binding (SMARCD2 (human)): binds
Substance: PBRM1 (from UniProt Q86U86 1-1689)

binding [16]: binds
Substance: ACTBL2 (from UniProt Q562R1 1-376)

binding (SMARCC2 (human) [17]): binds
binding (SMARCD3 (human) [18]): binds
Substance: ARID2 (from UniProt Q68CP9 2-1835)
